Reference: PMC10095748
Results are given in words; binding and its absence hold for the method and conditions named. In cells and extracts the contact can be indirect. Some results given as binding are weak or reduced against the parent protein; the word gives no strength.

By UniProt entry, the sequences of proteins in these tests, tags left out.
UniProt P08183: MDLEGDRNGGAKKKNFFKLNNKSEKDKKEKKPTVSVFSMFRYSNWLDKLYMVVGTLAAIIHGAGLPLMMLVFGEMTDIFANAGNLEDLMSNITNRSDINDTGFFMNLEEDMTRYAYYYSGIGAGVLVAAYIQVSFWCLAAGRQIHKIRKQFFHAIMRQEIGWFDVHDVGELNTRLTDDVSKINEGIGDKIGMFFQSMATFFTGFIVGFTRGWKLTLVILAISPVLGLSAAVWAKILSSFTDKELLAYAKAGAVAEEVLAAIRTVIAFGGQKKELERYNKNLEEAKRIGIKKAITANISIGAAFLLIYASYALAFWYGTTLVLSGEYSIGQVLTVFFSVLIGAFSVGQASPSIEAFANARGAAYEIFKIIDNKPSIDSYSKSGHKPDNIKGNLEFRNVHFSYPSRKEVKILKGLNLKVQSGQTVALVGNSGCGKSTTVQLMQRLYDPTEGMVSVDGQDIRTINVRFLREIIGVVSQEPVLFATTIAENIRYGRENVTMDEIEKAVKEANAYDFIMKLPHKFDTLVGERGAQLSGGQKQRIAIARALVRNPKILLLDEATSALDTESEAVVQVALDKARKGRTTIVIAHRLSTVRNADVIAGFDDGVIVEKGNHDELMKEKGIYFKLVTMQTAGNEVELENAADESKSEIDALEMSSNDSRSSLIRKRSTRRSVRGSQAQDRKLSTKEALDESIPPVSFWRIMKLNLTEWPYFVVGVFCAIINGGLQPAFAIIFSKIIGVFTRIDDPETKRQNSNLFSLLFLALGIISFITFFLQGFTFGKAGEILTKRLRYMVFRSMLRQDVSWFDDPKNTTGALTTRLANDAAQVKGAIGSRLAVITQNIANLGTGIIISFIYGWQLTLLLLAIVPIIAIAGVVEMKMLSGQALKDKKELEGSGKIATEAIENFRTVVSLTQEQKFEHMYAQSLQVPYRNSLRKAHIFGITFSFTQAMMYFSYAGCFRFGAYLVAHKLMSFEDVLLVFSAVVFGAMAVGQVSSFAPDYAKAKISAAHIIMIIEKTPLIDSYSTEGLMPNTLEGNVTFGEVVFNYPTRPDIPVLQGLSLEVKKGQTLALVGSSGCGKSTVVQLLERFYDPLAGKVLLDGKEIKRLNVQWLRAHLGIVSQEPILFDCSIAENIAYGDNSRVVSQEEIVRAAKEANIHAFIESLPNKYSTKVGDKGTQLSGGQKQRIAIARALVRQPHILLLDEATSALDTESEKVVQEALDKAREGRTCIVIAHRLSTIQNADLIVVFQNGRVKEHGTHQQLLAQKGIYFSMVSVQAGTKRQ

T1: astrocyte elevated gene-1 (AEG-1) (human (endogenous in MCF-7/DDP)) (UniProt Q86UE4)
T1 sequence: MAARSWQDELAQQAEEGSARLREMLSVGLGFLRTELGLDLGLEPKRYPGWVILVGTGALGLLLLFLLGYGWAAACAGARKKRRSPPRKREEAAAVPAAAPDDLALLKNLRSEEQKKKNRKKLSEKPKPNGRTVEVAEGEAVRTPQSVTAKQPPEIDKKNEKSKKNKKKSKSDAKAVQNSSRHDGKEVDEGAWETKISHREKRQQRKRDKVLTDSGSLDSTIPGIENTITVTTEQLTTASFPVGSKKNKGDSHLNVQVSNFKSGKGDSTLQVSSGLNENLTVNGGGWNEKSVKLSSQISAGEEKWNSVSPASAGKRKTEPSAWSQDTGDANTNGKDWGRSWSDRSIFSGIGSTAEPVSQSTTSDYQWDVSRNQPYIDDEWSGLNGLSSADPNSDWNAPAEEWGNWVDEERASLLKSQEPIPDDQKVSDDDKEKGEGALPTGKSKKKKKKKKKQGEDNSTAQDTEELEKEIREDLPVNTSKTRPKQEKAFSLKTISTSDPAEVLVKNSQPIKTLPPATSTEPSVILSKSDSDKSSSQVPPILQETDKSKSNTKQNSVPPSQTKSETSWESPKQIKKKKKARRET

B1: human regulator of ribosome synthesis 1 (RRS1) (protein, UniProt Q15050 1-365)
chain: MEGQSVEELLAKAEQDEAEKLQRITVHKELELQFDLGNLLASDRNPPTGLRCAGPTPEAELQALARDNTQLLINQLWQLPTERVEEAIVARLPEPTTRLPREKPLPRPRPLTRWQQFARLKGIRPKKKTNLVWDEVSGQWRRRWGYQRARDDTKEWLIEVPGNADPLEDQFAKRIQAKKERVAKNELNRLRNLARAHKMQLPSAAGLHPTGHQSKEELGRAMQVAKVSTASVGRFQERLPKEKVPRGSGKKRKFQPLFGDFAAEKKNQLELLRVMNSKKPQLDVTRATNKQMREEDQEEAAKRRKMSQKGKRKGGRQGPGGKRKGGPPSQGGKRKGGLGGKMNSGPPGLGGKRKGGQRPGGKRRK

How the values were obtained:
[1] = target: T1, astrocyte elevated gene-1 (AEG-1) (human (endogenous in MCF-7/DDP)); test: co-IP; MCF-7/DDP cell lysates incubated overnight with anti-AEG-1 antibody (1 ug) or IgG and protein A/G beads; washed with lysis buffer; immunoblot with anti-AEG-1, anti-RRS1 and anti-MDR1
[2] = target: multidrug resistance protein 1 (MDR1) (human (endogenous in MCF-7/DDP)) (UniProt P08183); test: as above

Molecule	binding [1]	binding [2]
multidrug resistance protein 1 (MDR1) (from UniProt P08183 1-1280)	binds	–
B1	binds	no binding
